This passage reports binding results from doi:10.1101/2023.04.06.535844.

The chains behind the UniProt entries cited, without tags or fusion partners. Residues count along the entry.
UniProt P28799, residues 18-593: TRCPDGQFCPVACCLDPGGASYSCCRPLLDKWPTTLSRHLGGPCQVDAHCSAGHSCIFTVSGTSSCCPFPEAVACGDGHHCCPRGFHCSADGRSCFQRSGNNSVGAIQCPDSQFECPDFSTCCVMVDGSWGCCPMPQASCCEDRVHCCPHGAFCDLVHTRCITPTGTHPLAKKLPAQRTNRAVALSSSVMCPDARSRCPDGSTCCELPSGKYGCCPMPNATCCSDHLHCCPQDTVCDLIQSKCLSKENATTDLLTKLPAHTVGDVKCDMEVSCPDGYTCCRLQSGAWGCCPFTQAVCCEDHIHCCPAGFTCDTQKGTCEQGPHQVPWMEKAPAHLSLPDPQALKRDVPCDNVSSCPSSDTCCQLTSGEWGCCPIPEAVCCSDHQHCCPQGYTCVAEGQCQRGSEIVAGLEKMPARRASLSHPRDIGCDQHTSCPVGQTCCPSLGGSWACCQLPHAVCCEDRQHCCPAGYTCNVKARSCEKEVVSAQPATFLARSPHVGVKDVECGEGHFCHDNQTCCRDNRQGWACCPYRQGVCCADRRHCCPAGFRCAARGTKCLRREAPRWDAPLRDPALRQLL

Results are given in words; binding and its absence hold for the method and conditions named. In cells and extracts the contact can be indirect. Some entries that bind do so weakly or less than the wild type. Sequences can lack the tags named with a protein.

Holding throughout (test): co-IP
In assay [1] the target is T1, mouse sPLA2-IIA-myc (mouse Pla2g2a-Myc-DDK) (mouse) (UniProt P31482).
T1 sequence: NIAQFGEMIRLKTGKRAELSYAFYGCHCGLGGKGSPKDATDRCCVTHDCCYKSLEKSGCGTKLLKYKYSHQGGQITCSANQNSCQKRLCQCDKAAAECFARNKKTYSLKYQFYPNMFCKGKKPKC

Assay [2] addresses GFP-PGRN (human progranulin), expressed in HEK293T cells (human) (UniProt P28799).
Assay [3] deals with Flag-PGRN (human) (human) (UniProt P28799).

B1: FLAG-mouse-PGRN (protein, UniProt P28798 18-589)
chain: TQCPDGQFCPVACCLDQGGANYSCCNPLLDTWPRITSHHLDGSCQTHGHCPAGYSCLLTVSGTSSCCPFSKGVSCGDGYHCCPQGFHCSADGKSCFQMSDNPLGAVQCPGSQFECPDSATCCIMVDGSWGCCPMPQASCCEDRVHCCPHGASCDLVHTRCVSPTGTHTLLKKFPAQKTNRAVSLPFSVVCPDAKTQCPDDSTCCELPTGKYGCCPMPNAICCSDHLHCCPQDTVCDLIQSKCLSKNYTTDLLTKLPGYPVKEVKCDMEVSCPEGYTCCRLNTGAWGCCPFAKAVCCEDHIHCCPAGFQCHTEKGTCEMGILQVPWMKKVIAPLRLPDPQILKSDTPCDDFTRCPTNNTCCKLNSGDWGCCPIPEAVCCSDNQHCCPQGFTCLAQGYCQKGDTMVAGLEKIPARQTTPLQIGDIGCDQHTSCPVGQTCCPSLKGSWACCQLPHAVCCEDRQHCCPAGYTCNVKARTCEKDVDFIQPPVLLTLGPKVGNVECGEGHFCHDNQTCCKDSAGVWACCPYLKGVCCRDGRHCCPGGFHCSARGTKCLRKKIPRWDMFLRDPVPRPLL
Consider B1, for which the binding entry in assay [1] is on record as “binds”.

B2: human sPLA2-IIA-myc (human Pla2g2a-Myc-His) (enzyme, UniProt P14555 21-144)
chain: NLVNFHRMIKLTTGKEAALSYGFYGCHCGVGGRGSPKDATDRCCVTHDCCYKRLEKRGCGTKFLSYKFSNSGSRITCAKQDSCRSQLCECDKAAATCFARNKTTYNKKYQYYSNKHCRGSTPRC
B2: in assay [2], the binding result is listed as “binds”.

B3: untagged human sPLA2-IIA (enzyme, UniProt P14555 21-144)
chain: NLVNFHRMIKLTTGKEAALSYGFYGCHCGVGGRGSPKDATDRCCVTHDCCYKRLEKRGCGTKFLSYKFSNSGSRITCAKQDSCRSQLCECDKAAATCFARNKTTYNKKYQYYSNKHCRGSTPRC
Regarding B3, in assay [3], the binding result is recorded as “binds”.
